In article PMC3248445:

Experiments:
Assay in all cases: two-hybrid; Matchmaker GAL4 two-hybrid system 3, pGADT7- and pGBKT7-derived vectors in PJ69 4a and PJ69 4alpha yeast, mated; growth on medium lacking Leu, Trp, His (low stringency) and lacking Leu, Trp, His, Ade (high stringency); three independent experiments, each in duplicate
[1] = molecular target: VPg from PepMoV (Pepper mottle virus)
[2] = molecular target: VPg from TEV-HAT (Tobacco etch virus, strain HAT)
[3] = molecular target: VPg from PVY-LYE84 (Potato virus Y, strain LYE84)
[4] = molecular target: VPg from PVY-LYE90 (Potato virus Y, strain LYE90)

Measured: binding

B1: eIF4E1 from tomato (Solanum lycopersicum cv. M82) (protein, UniProt Q4VQY3 1-231)
chain: MAAAEMERTMSFDAAEKLKAADGGGGEVDDELEEGEIVEESNDTASYLGKEITVKHPLEHSWTFWFDNPTTKSRQTAWGSSLRNVYTFSTVEDFWGAYNNIHHPSKLIMGADFHCFKHKIEPKWEDPVCANGGTWKMSFSKGKSDTSWLYTLLAMIGHQFDHGDEICGAVVSVRAKGEKIALWTKNAANETAQVSIGKQWKQFLDYSDSVGFIFHDDAKRLDRNAKNRYTV
binds: all assays above

Results are given in words; binding and its absence hold for the method and conditions named. Binding calls can cover weak binding; strength is not graded here.
